Molecules are shown by their SMILES. Converted amounts (≈) assume the structure as drawn.

Assay [1] deals with breast cancer (MCF7) cell line. Put plainly: Activity against breast cancer cell line. The assay is classed as cell-based.
In assay [2] the test system is melanoma (MM96L) cell line. Put plainly: Activity against melanoma cell line. The assay is classed as cell-based.

Regarding `O=C(CCCCCCC(=O)Nc1ccccc1)NO` [compound 11, suberanilohydroxamic acid, reference compound], the IC50 is 0.017 ± 0.001 µg/mL (≈ 0.0643 µM) in assay [1] and 0.026 ± 0.005 µg/mL (≈ 0.0984 µM) in assay [2].
